Reference: patent US20060281806A1, “Treatment and inhibition of disease conditions using flexible heteroarotinoids” (priority 2005, published 2006)
For at least one compound, name, drawing or mass did not settle the structure. Some results were stated once for a whole list of compounds, not compound by compound.

Tests used:
[1] = system: Ovarian cancer cells (A2780); experiment: Mitochondrial swelling (JC1 dye); format: cell-based, human; conditions: swelling maintained for 24 hours
[2] = cited from earlier work

Compound	time to swelling of mitochondria in cancer cells [1] [min]	toxicity relative to RA [2]
CCOC(=O)c1ccc(NC(=O)Nc2ccc3c(c2)C(C)(C)CC(C)(C)S3)cc1 [SHetA4]	≤ 30	
CC1(C)CC(C)(C)c2cc(NC(=S)Nc3ccc([N+](=O)[O-])cc3)ccc2S1 [SHetA2]	≤ 30	
C/C(=C\c1ccc(C(=O)O)cc1)c1ccc2c(c1)C(C)(C)CCC2(C)C [TTNPB]		considerably more toxic
